Assay results: patent publication US20210332360
No signal at the amounts used counts as a negative. For part of these data: Tags and fusion partners may be left off the protein sequences shown. For part of these data: Construct, isoform or probe ends are uncertain for at least one entry.

By UniProt entry, the sequences of proteins in these tests, tags left out. Where a name states a change or a piece, a line headed by the entry shows the natural chain unless it says otherwise.
UniProt P83410: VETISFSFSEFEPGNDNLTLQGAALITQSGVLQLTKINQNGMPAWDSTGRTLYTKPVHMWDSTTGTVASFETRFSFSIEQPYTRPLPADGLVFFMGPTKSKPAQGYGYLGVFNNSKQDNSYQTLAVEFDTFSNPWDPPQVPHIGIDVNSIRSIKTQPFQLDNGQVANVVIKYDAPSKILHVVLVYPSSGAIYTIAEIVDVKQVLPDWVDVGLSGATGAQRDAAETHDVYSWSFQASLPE

Legend:
[1] = target: T1, Narcissus pseudonarcissus lectin (NPA) (Narcissus pseudonarcissus) (UniProt C0HM45); assay: flow cytometry; conditions: after the 5' primer region all dT replaced by 4 (alpha-D-mannose-triazole-modified C8-alkyne-dU); natural dC; virtually no binding at 10 nM; little at 1 uM; purified native protein; protein details: fluorescent label; label: particle-displayed, or 5'-biotinTEG; single-stranded DNA; variant of 3-1
T1 sequence (looked up, limits assumed): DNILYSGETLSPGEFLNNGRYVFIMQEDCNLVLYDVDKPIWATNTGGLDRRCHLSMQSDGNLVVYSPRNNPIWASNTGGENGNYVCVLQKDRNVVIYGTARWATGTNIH

[2] = test system: Lens culinaris agglutinin (LcH) (Lens culinaris); assay: flow cytometry; conditions: after the 5' primer region all dT replaced by 4 (alpha-D-mannose-triazole-modified C8-alkyne-dU); natural dC; virtually no binding at 10 nM; little at 1 uM; purified native protein; protein details: fluorescent label; label: particle-displayed, or 5'-biotinTEG; single-stranded DNA; variant of 3-1
[3] = target: T2, Phaseolus lunatus lectin (LBA) (Phaseolus lunatus) (UniProt P16300); assay: binding assay; conditions: after the 5' primer region all dT replaced by 4 (alpha-D-mannose-triazole-modified C8-alkyne-dU); natural dC; lectin array 0.04-400 nM; only ConA gave strong signal; purified native protein; protein details: RayBiotech Lectin Array 40; label: particle-displayed, or 5'-biotinTEG; single-stranded DNA; variant of 3-1
T2 sequence (looked up, limits assumed): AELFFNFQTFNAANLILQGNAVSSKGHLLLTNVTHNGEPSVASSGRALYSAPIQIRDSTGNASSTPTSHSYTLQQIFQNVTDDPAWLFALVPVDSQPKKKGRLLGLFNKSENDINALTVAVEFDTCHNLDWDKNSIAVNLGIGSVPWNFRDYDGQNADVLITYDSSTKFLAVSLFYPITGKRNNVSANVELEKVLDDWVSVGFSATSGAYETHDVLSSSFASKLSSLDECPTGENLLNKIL

[4] = target: T3, Wisteria floribunda lectin (WFA) (Wisteria floribunda) (UniProt A0A218PFP3); assay: binding assay; conditions: after the 5' primer region all dT replaced by 4 (alpha-D-mannose-triazole-modified C8-alkyne-dU); natural dC; lectin array 0.04-400 nM; only ConA gave strong signal; purified native protein; protein details: RayBiotech Lectin Array 40; label: particle-displayed, or 5'-biotinTEG; single-stranded DNA; variant of 3-1
T3 sequence (looked up, limits assumed): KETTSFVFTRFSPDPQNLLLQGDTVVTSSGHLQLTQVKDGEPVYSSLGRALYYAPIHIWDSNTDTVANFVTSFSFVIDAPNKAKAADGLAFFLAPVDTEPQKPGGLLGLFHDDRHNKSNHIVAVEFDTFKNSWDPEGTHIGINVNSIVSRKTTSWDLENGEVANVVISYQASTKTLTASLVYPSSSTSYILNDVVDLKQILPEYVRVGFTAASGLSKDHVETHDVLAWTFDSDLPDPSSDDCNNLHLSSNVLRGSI

[5] = target: T4, Peanut agglutinin (PNA) (Arachis hypogaea) (UniProt P02872); assay: binding assay; conditions: after the 5' primer region all dT replaced by 4 (alpha-D-mannose-triazole-modified C8-alkyne-dU); natural dC; lectin array 0.04-400 nM; only ConA gave strong signal; purified native protein; protein details: RayBiotech Lectin Array 40; label: particle-displayed, or 5'-biotinTEG; single-stranded DNA; variant of 3-1
T4 sequence (looked up, limits assumed): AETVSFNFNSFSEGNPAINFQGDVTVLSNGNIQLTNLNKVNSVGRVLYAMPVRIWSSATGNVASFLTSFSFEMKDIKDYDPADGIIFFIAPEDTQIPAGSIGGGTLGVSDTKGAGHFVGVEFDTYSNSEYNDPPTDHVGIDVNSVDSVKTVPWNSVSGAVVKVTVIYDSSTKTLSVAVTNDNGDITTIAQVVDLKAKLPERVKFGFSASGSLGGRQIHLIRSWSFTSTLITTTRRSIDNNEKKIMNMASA

[6] = target: Erythrina cristagalli lectin (ECA) (Erythrina cristagalli) (UniProt P83410); assay: binding assay; conditions: after the 5' primer region all dT replaced by 4 (alpha-D-mannose-triazole-modified C8-alkyne-dU); natural dC; lectin array 0.04-400 nM; only ConA gave strong signal; purified native protein; protein details: RayBiotech Lectin Array 40; label: particle-displayed, or 5'-biotinTEG; single-stranded DNA; variant of 3-1
[7] = target: T5, Lotus tetragonolobus lectin (LTL) (Lotus tetragonolobus) (UniProt P19664); assay: binding assay; conditions: after the 5' primer region all dT replaced by 4 (alpha-D-mannose-triazole-modified C8-alkyne-dU); natural dC; lectin array 0.04-400 nM; only ConA gave strong signal; purified native protein; protein details: RayBiotech Lectin Array 40; label: particle-displayed, or 5'-biotinTEG; single-stranded DNA; variant of 3-1
T5 sequence (looked up, limits assumed): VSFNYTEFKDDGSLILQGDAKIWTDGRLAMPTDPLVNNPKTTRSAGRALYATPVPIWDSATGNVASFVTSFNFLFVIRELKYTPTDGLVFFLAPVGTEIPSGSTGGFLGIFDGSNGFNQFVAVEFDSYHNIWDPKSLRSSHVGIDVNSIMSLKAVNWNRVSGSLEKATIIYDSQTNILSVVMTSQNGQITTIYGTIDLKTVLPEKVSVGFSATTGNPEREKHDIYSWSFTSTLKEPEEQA

[8] = target: T6, Ulex europaeus lectin I (UEA-I) (Ulex europaeus) (UniProt P22972); assay: binding assay; conditions: after the 5' primer region all dT replaced by 4 (alpha-D-mannose-triazole-modified C8-alkyne-dU); natural dC; lectin array 0.04-400 nM; only ConA gave strong signal; purified native protein; protein details: RayBiotech Lectin Array 40; label: particle-displayed, or 5'-biotinTEG; single-stranded DNA; variant of 3-1
T6 sequence (looked up, limits assumed): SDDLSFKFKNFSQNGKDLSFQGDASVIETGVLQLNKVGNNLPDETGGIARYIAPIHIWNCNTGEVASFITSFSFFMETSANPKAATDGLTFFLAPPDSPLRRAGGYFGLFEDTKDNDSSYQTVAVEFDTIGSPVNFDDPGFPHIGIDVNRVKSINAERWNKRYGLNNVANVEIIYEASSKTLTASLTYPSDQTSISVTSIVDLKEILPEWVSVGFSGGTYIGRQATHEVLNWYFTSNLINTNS

[9] = target: T7, AIA (Artocarpus integrifolia) (UniProt P18670); assay: binding assay; conditions: after the 5' primer region all dT replaced by 4 (alpha-D-mannose-triazole-modified C8-alkyne-dU); natural dC; lectin array 0.04-400 nM; only ConA gave strong signal; purified native protein; protein details: RayBiotech Lectin Array 40; label: particle-displayed, or 5'-biotinTEG; single-stranded DNA; variant of 3-1
T7 sequence (looked up, limits assumed): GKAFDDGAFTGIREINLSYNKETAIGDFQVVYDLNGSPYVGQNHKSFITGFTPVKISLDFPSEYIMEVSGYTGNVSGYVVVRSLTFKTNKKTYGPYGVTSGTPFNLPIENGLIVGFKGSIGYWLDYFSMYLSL

[10] = test system: Lycopersicon esculentum lectin (LEA) (Lycopersicon esculentum); assay: binding assay; conditions: after the 5' primer region all dT replaced by 4 (alpha-D-mannose-triazole-modified C8-alkyne-dU); natural dC; lectin array 0.04-400 nM; only ConA gave strong signal; purified native protein; protein details: RayBiotech Lectin Array 40; label: particle-displayed, or 5'-biotinTEG; single-stranded DNA; variant of 3-1
[11] = target: T8, Anguilla anguilla lectin (AAA) (Anguilla anguilla) (UniProt Q7SIC1); assay: binding assay; conditions: after the 5' primer region all dT replaced by 4 (alpha-D-mannose-triazole-modified C8-alkyne-dU); natural dC; lectin array 0.04-400 nM; only ConA gave strong signal; purified native protein; protein details: RayBiotech Lectin Array 40; label: particle-displayed, or 5'-biotinTEG; single-stranded DNA; variant of 3-1
T8 sequence (looked up, limits assumed): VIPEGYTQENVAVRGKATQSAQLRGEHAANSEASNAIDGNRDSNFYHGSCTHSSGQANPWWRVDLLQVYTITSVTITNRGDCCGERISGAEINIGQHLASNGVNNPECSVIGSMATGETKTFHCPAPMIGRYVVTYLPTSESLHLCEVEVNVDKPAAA

[12] = test system: Griffonia simplicifolia lectin I (GS-I) (Griffonia simplicifolia); assay: binding assay; conditions: after the 5' primer region all dT replaced by 4 (alpha-D-mannose-triazole-modified C8-alkyne-dU); natural dC; lectin array 0.04-400 nM; only ConA gave strong signal; purified native protein; protein details: RayBiotech Lectin Array 40; label: particle-displayed, or 5'-biotinTEG; single-stranded DNA; variant of 3-1
[13] = target: T9, Aleuria aurantia lectin (AAL) (Aleuria aurantia) (UniProt P18891); assay: binding assay; conditions: after the 5' primer region all dT replaced by 4 (alpha-D-mannose-triazole-modified C8-alkyne-dU); natural dC; lectin array 0.04-400 nM; only ConA gave strong signal; purified native protein; protein details: RayBiotech Lectin Array 40; label: particle-displayed, or 5'-biotinTEG; single-stranded DNA; variant of 3-1
T9 sequence (looked up, limits assumed): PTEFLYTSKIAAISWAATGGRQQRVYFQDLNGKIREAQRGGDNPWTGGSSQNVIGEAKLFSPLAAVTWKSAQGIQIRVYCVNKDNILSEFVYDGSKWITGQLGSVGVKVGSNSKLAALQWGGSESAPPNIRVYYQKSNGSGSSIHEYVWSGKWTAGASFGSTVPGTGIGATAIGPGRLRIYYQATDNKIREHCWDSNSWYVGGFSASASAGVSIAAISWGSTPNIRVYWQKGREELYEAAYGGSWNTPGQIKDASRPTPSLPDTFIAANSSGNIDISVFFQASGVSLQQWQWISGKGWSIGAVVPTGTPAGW

[14] = target: T10, Psophocarpus tetragonolobus lectin (PTL) (Psophocarpus tetragonolobus) (UniProt O24313); assay: binding assay; conditions: after the 5' primer region all dT replaced by 4 (alpha-D-mannose-triazole-modified C8-alkyne-dU); natural dC; lectin array 0.04-400 nM; only ConA gave strong signal; purified native protein; protein details: RayBiotech Lectin Array 40; label: particle-displayed, or 5'-biotinTEG; single-stranded DNA; variant of 3-1
T10 sequence (looked up, limits assumed): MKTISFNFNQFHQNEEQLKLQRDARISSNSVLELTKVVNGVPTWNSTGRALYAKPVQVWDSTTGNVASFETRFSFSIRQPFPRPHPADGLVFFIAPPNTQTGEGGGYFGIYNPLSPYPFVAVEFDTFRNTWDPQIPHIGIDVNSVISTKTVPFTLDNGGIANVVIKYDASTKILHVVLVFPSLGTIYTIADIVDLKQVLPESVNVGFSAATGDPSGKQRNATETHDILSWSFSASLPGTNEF

[15] = test system: Hippeastrum hybrid lectin (HHA) (Hippeastrum hybrid); assay: binding assay; conditions: after the 5' primer region all dT replaced by 4 (alpha-D-mannose-triazole-modified C8-alkyne-dU); natural dC; lectin array 0.04-400 nM; only ConA gave strong signal; purified native protein; protein details: RayBiotech Lectin Array 40; label: particle-displayed, or 5'-biotinTEG; single-stranded DNA; variant of 3-1

Measured: binding result

GATCCCAGTCCGAAGTAATCGTTGCATCTGCACGACTGGTGAGCTTGAGTGGCAGAAGAACTTGTGCAAACGGCTATAGG [3-1m]
no binding: all assays above
